According to the supplement of paper PMC12067093, “Discovery and optimisation of a covalent ligand for TRIM25 and its application to targeted protein ubiquitination” (Chemical Science, 2025):
The list shows a part of the results.

Protein sequences, listed by entry. Tags and fused reporters are not part of them. Lines headed by an entry give the natural chain unless they say otherwise; changes in a name come on top.
UniProt Q2NKX8: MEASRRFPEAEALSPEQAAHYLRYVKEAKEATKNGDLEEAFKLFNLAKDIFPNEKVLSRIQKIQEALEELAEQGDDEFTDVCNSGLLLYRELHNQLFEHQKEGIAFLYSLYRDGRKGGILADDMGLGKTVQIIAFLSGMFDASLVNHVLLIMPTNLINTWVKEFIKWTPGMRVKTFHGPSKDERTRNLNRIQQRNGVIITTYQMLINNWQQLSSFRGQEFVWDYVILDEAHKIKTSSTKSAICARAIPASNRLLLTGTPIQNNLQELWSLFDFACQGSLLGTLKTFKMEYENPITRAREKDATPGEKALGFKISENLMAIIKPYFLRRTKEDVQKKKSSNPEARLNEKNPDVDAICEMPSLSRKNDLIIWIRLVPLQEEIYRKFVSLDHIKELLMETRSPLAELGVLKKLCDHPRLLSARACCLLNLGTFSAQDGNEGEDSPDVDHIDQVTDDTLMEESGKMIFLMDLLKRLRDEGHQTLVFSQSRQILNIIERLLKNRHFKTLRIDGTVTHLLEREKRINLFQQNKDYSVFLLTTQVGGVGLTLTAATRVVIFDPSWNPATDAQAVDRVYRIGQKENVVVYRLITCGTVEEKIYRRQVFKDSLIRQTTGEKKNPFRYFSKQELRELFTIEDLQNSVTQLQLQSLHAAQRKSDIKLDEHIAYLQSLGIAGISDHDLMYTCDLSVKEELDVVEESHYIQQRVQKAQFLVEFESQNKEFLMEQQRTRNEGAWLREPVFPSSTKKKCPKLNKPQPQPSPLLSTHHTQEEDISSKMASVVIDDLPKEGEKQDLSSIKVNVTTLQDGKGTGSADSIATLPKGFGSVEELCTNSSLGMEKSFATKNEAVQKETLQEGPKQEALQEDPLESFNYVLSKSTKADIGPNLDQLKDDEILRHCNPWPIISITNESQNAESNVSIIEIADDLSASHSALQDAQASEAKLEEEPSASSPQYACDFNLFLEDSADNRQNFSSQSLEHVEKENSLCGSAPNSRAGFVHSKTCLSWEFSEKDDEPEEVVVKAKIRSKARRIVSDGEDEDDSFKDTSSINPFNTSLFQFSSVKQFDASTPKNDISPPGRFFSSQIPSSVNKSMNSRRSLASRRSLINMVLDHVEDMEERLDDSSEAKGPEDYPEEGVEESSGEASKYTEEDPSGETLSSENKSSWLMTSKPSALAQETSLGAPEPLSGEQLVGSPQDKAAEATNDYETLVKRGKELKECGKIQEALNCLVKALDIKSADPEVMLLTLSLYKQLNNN
UniProt Q6SJ93: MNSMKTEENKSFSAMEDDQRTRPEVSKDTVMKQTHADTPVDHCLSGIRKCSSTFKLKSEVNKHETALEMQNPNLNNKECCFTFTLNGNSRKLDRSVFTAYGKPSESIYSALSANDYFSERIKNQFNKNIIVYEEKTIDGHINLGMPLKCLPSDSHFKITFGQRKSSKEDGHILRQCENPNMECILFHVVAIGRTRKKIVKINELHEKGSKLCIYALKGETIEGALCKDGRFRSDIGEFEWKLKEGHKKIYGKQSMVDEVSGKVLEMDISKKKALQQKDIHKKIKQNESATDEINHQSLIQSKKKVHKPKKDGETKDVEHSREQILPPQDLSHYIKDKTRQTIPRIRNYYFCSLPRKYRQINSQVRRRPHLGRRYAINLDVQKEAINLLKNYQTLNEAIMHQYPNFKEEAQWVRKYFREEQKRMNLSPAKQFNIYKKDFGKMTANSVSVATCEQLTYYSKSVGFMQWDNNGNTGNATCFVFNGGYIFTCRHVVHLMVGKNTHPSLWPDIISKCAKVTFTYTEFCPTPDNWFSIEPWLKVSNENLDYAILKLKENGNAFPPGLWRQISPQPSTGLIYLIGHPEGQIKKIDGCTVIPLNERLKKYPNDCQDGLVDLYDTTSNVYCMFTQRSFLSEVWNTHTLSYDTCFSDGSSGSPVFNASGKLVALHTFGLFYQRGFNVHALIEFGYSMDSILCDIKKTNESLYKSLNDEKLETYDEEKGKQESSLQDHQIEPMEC
UniProt O43414: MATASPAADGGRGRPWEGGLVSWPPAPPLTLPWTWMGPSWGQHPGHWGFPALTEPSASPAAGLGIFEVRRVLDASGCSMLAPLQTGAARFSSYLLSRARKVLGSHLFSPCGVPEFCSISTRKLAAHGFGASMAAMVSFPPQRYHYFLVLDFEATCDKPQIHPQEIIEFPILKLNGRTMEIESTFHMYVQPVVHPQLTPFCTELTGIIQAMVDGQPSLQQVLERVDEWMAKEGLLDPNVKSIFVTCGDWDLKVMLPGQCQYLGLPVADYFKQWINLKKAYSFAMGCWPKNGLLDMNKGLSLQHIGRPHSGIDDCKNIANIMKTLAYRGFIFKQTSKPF
UniProt O95571: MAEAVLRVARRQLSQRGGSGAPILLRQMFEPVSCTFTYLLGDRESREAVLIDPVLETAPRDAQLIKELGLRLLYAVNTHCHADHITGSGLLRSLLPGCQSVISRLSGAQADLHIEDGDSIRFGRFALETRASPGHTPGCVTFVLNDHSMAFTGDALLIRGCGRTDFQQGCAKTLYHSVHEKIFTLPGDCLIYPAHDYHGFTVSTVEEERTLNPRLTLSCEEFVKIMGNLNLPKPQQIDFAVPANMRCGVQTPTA
UniProt Q6P587: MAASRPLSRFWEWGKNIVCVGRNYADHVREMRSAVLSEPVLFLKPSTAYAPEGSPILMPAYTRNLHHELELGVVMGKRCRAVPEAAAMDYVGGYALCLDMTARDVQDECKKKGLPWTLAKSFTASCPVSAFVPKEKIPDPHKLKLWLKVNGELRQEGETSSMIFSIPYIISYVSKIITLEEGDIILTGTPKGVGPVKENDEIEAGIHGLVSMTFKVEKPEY
UniProt Q9NWS6: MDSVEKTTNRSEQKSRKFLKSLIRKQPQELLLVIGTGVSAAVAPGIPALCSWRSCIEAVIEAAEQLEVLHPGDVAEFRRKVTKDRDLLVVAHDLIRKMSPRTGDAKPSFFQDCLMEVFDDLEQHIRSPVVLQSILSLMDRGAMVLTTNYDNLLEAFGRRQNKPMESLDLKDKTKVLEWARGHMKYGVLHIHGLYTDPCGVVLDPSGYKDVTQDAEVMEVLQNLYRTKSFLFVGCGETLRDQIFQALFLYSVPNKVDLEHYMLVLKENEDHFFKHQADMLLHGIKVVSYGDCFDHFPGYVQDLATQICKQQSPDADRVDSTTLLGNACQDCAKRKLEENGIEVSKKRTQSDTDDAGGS
UniProt Q15910, whole entry, looked up: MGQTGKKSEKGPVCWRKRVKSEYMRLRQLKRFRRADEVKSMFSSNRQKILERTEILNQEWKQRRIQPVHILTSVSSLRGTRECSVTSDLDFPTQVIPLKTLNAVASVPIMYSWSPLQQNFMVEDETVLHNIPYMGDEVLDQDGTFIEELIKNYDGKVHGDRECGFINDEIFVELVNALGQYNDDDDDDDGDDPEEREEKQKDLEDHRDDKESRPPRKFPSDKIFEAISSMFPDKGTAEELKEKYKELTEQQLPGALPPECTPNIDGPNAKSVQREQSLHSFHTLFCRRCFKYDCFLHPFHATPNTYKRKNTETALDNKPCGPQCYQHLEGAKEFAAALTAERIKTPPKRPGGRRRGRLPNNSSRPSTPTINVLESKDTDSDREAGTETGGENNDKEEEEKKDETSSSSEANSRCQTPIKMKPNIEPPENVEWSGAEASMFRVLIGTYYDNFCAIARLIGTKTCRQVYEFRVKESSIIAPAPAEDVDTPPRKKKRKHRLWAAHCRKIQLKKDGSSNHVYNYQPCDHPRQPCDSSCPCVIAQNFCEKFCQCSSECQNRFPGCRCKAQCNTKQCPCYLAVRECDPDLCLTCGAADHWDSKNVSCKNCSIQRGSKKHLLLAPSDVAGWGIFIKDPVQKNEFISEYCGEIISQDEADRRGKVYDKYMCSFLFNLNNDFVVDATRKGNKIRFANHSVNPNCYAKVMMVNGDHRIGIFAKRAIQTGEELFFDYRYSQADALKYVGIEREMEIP
UniProt Q96HE7: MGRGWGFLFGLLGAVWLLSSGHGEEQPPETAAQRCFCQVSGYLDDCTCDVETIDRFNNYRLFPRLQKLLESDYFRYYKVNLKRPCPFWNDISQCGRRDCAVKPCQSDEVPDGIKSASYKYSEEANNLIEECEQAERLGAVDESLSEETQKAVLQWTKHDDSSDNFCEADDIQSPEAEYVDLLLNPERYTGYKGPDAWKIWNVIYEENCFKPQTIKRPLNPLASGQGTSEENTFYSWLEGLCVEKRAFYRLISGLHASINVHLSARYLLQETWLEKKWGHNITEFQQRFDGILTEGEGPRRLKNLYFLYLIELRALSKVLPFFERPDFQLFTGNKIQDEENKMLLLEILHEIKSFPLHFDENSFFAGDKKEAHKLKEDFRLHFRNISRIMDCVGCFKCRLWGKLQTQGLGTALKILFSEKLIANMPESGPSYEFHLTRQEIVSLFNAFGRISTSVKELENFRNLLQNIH
UniProt Q96EK7: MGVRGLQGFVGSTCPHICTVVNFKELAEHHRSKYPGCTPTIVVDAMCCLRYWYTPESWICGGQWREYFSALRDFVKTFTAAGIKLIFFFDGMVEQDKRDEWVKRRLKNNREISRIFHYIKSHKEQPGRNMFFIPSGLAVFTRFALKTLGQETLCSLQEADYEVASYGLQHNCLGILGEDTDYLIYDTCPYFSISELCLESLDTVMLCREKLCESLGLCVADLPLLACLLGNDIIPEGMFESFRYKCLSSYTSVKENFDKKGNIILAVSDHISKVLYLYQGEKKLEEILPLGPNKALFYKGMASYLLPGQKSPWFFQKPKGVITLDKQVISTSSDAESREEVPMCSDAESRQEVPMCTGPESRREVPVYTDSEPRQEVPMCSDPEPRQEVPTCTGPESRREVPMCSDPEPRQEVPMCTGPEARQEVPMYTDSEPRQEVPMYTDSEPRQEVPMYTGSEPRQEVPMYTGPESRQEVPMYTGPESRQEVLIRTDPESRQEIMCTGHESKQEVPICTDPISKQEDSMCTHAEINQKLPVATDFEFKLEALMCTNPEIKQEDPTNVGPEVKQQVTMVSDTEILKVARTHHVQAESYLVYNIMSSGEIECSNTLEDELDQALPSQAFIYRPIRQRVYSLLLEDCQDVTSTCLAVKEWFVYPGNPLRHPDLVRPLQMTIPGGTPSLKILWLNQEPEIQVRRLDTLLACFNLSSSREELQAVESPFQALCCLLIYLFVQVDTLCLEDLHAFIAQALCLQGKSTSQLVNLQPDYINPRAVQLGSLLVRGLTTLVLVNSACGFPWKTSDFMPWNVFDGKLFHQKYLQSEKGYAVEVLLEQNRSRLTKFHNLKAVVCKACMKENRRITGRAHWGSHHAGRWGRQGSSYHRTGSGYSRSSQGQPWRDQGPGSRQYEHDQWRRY
UniProt Q9NV70: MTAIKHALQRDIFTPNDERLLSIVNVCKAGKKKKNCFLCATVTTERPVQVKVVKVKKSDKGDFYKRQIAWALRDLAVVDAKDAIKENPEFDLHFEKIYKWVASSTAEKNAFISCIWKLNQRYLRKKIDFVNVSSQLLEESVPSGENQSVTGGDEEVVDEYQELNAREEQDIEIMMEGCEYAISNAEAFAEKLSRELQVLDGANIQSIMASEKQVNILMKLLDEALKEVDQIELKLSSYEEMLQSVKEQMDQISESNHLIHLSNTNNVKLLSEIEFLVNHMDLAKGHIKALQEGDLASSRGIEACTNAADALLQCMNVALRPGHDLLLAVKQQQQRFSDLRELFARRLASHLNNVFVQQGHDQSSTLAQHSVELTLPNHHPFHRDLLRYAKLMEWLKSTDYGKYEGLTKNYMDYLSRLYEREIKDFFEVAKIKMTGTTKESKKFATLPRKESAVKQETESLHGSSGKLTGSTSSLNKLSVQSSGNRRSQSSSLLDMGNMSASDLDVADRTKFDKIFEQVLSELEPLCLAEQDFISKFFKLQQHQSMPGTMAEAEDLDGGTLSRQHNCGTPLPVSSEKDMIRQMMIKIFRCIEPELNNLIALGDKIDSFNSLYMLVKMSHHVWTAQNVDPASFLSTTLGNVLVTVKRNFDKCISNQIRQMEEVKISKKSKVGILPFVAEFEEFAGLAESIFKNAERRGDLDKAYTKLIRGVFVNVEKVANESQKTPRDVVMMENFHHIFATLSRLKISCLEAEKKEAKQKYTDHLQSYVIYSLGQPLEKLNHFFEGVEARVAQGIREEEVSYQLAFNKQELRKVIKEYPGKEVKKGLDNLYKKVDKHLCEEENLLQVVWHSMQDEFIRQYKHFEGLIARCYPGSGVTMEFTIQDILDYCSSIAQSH
UniProt O94905: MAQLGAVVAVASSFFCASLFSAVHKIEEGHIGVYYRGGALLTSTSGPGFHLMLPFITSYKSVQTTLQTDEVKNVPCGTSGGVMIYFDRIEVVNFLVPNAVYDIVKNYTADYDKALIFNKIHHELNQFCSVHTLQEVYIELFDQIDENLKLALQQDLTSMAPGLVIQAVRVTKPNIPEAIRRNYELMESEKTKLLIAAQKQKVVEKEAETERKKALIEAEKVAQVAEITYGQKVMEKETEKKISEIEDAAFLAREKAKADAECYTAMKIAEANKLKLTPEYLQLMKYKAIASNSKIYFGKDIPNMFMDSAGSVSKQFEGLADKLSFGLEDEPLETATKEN

Compound: CC1Cc2ccccc2N1C(=O)C1CCCN(C1)C(=O)CCl (mixture of isomers) [TRIM25 ligand 11 (diastereomer mixture)]
Assay: probe-labelled cysteine peptide fold change vs DMSO (competition) (log2 fold change); higher = less target engagement (more negative = stronger competition)
Settings: THP-1, incubation time: 4 h
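Further: competitive chemoproteomic profiling in live THP-1 cells with an iodoacetamide desthiobiotin (IA-DTB) probe, comparing probe-labelled peptide intensities in compound-treated cells against DMSO-treated controls.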

Row | Target | probe-labelled cysteine peptide fold change (10 µM) | probe-labelled cysteine peptide fold change (50 µM)
1 | ERCC3_P19447_403_DKPIGCSVAISTYSMLGHTTK (UniProt P19447) | 0.005 | 0.000247
2 | ERCC6L_Q2NKX8_356_NPDVDAICEMPSLSR (UniProt Q2NKX8) | -0.0361 | -0.23
3 | ETS1_P14921_31_VDLELFPSPDMECADVPLLTPSSK (UniProt P14921) | 0.328 | 0.177
4 | EXOC5_O00471_675_QVCSGEQLANLDK (UniProt O00471) | 0.0894 | 0.0771
5 | ERCC2_P18074_588_YQEACENGR (UniProt P18074) | 0.15 | 0.0126
6 | EXOC2_Q96KP1_586_CVMATLQHTAEEIKR (UniProt Q96KP1) | 0.162 | 0.257
7 | EVI5_O60447_479_LSEAESQCALK (UniProt O60447) | -0.0221 | -0.169
8 | FAM111B_Q6SJ93_351_NYYFCSLPR (UniProt Q6SJ93) | -0.00273 | 0.026
9 | ERI3_O43414_258_VMLPGQCQYLGLPVADYFK (UniProt O43414) | -0.024 | 0.109
10 | ETFA_P13804_155_TIYAGNALCTVK (UniProt P13804) | 0.0296 | -0.008
11 | EXOC4_Q96A65_786_VHCFHYLIPLAK (UniProt Q96A65) | 0.178 | 0.434
12 | ETHE1_O95571_80_LLYAVNTHCHADHITGSGLLR (UniProt O95571) | -0.0417 | -0.0437
13 | FAHD1_Q6P587_129_SFTASCPVSAFVPK (UniProt Q6P587) | 0.016 | -0.0515
14 | FAM118A_Q9NWS6_55_SCIEAVIEAAEQLEVLHPGDVAEFR (UniProt Q9NWS6) | 0.0464 | 0.136
15 | FAM118A_Q9NWS6_113_TGDAKPSFFQDCLMEVFDDLEQHIR (UniProt Q9NWS6) | 0.104 | -0.177
16 | EZH2_Q15910_503_LWAAHCR (UniProt Q15910) | -0.019 | -0.121
17 | ERO1A_Q96HE7_99+104_DCAVKPCQSDEVPDGIK (UniProt Q96HE7) | 0.0334 | -0.202
18 | ERI3_O43414_313_GLSLQHIGRPHSGIDDCK (UniProt O43414) | 0.00506 | -0.0155
19 | FAM120B_Q96EK7_404_EVPMCSDPEPR (UniProt Q96EK7) | -0.167 | -0.477
20 | EZH2_Q15910_260_ELTEQQLPGALPPECTPNIDGPNAK (UniProt Q15910) | -0.13 | -0.25

Row | Target | probe-labelled cysteine peptide fold change (10 µM) | probe-labelled cysteine peptide fold change (50 µM)
21 | ESYT1_Q9BSJ8_522_AVYSTNCPVWEEAFR (UniProt Q9BSJ8) | 0.139 | 0.00221
22 | ERP29_P30040_157_GQGVYLGMPGCLPVYDALAGEFIR (UniProt P30040) | 0.0131 | -0.246
23 | ERO1A_Q96HE7_94_RPCPFWNDISQCGR (UniProt Q96HE7) | 0.149 | 0.12
24 | FAM120B_Q96EK7_523_QEDSMCTHAEINQK (UniProt Q96EK7) | 0.0281 | -0.387
25 | ERC1_Q8IUD2_1034_LYIGHLTTLCHDRDPLILR (UniProt Q8IUD2) | -0.118 | -0.181
26 | ERCC6L_Q2NKX8_411_LCDHPR (UniProt Q2NKX8) | 0.0342 | 0.0844
27 | FAM111B_Q6SJ93_590_IDGCTVIPLNER (UniProt Q6SJ93) | -0.0745 | -0.147
28 | EXOC6B_Q9Y2D4_32_EIESTDTACIGPTLR (UniProt Q9Y2D4) | 0.0089 | -0.249
29 | EXOC1_Q9NV70_650_CISNQIR (UniProt Q9NV70) | -0.028 | 0.123
30 | FAM120B_Q96EK7_700_LDTLLACFNLSSSR (UniProt Q96EK7) | 0.116 | 0.383
31 | ETFDH_Q16134_266_ANCEPQTYGIGLK (UniProt Q16134) | 0.139 | 0.0421
32 | ERCC4_Q92889_176_AFTDNAVAFDTGFCHVER (UniProt Q92889) | -0.267 | -0.403
33 | ERO1A_Q96HE7_85+94_RPCPFWNDISQCGR (UniProt Q96HE7) | 0.0778 | 0.165
34 | EXOC3_O60645_161_KLMDLECSR (UniProt O60645) | -0.0293 | -0.116
35 | EXOC1_Q9NV70_36_NCFLCATVTTERPVQVK (UniProt Q9NV70) | 0.101 | 0.0465
36 | FAM120B_Q96EK7_392_QEVPTCTGPESR (UniProt Q96EK7) | -0.209 | -0.192
37 | ERLIN2_O94905_262_AKADAECYTAMK (UniProt O94905) | -0.107 | -0.249
38 | EXOSC6_Q5RKV6_117_RAPPGGCEERELALALQEALEPAVR (UniProt Q5RKV6) | -0.315 | -0.327
39 | EXOSC7_Q15024_189_DIELSDDPYDCIR (UniProt Q15024) | 0.111 | 0.141

An excerpt of these results, with tabs.
Row	Target	probe-labelled cysteine peptide fold change (10 µM)	probe-labelled cysteine peptide fold change (50 µM)
15	FAM118A_Q9NWS6_113_TGDAKPSFFQDCLMEVFDDLEQHIR (UniProt Q9NWS6)	0.104	-0.177
16	EZH2_Q15910_503_LWAAHCR (UniProt Q15910)	-0.019	-0.121
17	ERO1A_Q96HE7_99+104_DCAVKPCQSDEVPDGIK (UniProt Q96HE7)	0.0334	-0.202
